Reference: PubChem BioAssay AID602196 (INSERM, 2012)

Test: 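Genes whose knock-down alters cisplatin killing of lung cancer cells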
Cell system: human A549 lung cancer cells
Knock-down reagent: siRNA pair against human genes
Duration: 48 h transfection before cisplatin; time from cisplatin to read-out not stated
Conditions: cisplatin at a dose killing half of control-siRNA cells; exact dose and duration not given
Detection: 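Cisplatin cell death as a shift from the 50% death seen with control siRNA; siRNAs toxic or growth-blocking alone scored 0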
Scale: two-siRNA summed score (-2 to +2): higher = both siRNAs protect from cisplatin killing; -2 means both sensitise
Call rule: 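Each siRNA scores 0 if harmful alone by LDH or WST-1, otherwise +1 if it reduces and -1 if it increases cisplatin killing; a gene is active when both siRNAs agree (sum +2 or -2)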
Calls: active = both siRNAs shift cisplatin killing the same way; inactive = no consistent shift, or siRNA harmful alone
In all, the deposit lists about 23,000 reagents; this is a random part of them. 455 of all reagents (2%) were called active. 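Active includes both protection and sensitisation; some change values fall well beyond the stated -50 to +50 range.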 The numbers tell different reagents against one gene apart. Not all columns of the deposit are shown. No sequences are given here. The record does not give: the amount of reagent.

The first 5 entries, ahead of the listing:
HTRA1 → two-siRNA summed score (-2 to +2) = 0; call = inactive
ZNF222 → two-siRNA summed score (-2 to +2) = 1; call = inactive
GJC2 → two-siRNA summed score (-2 to +2) = 1; call = inactive
LOC391387 → two-siRNA summed score (-2 to +2) = 1; call = inactive
CDH17 → two-siRNA summed score (-2 to +2) = 0; call = inactive

Main list, repeating the preview:
HTRA1 → two-siRNA summed score (-2 to +2) = 0; call = inactive
ZNF222 → two-siRNA summed score (-2 to +2) = 1; call = inactive
GJC2 → two-siRNA summed score (-2 to +2) = 1; call = inactive
LOC391387 → two-siRNA summed score (-2 to +2) = 1; call = inactive
CDH17 → two-siRNA summed score (-2 to +2) = 0; call = inactive
LOC401611 → two-siRNA summed score (-2 to +2) = 0; call = inactive
PCDH12 → two-siRNA summed score (-2 to +2) = 0; call = inactive
APOBEC3B → two-siRNA summed score (-2 to +2) = 0; call = inactive
WSCD2 → two-siRNA summed score (-2 to +2) = 0; call = inactive
WRNIP1 → two-siRNA summed score (-2 to +2) = 0; call = inactive
CPAMD8 → two-siRNA summed score (-2 to +2) = 0; call = inactive
PYGB → two-siRNA summed score (-2 to +2) = 1; call = inactive
LOC441710 → two-siRNA summed score (-2 to +2) = 1; call = inactive
VGLL4 → two-siRNA summed score (-2 to +2) = 0; call = inactive
LOC344167 → two-siRNA summed score (-2 to +2) = 0; call = inactive
LOC440052 → two-siRNA summed score (-2 to +2) = 1; call = inactive
GPHA2 → two-siRNA summed score (-2 to +2) = 0; call = inactive
IARS2 → two-siRNA summed score (-2 to +2) = 0; call = inactive
SPATA4 → two-siRNA summed score (-2 to +2) = 0; call = inactive
LOC387702 → two-siRNA summed score (-2 to +2) = 1; call = inactive
SORT1 → two-siRNA summed score (-2 to +2) = 0; call = inactive
RPS23 → two-siRNA summed score (-2 to +2) = 0; call = inactive
ARSK → two-siRNA summed score (-2 to +2) = 1; call = inactive
EEA1 → two-siRNA summed score (-2 to +2) = 0; call = inactive
GLUD2 → two-siRNA summed score (-2 to +2) = 0; call = inactive
SLC9B2 → two-siRNA summed score (-2 to +2) = 0; call = inactive
LCN8 → two-siRNA summed score (-2 to +2) = 0; call = inactive
LOC440064 → two-siRNA summed score (-2 to +2) = 1; call = inactive
MPZ → two-siRNA summed score (-2 to +2) = -1; call = inactive
FGF23 → two-siRNA summed score (-2 to +2) = -1; call = inactive
RSL1D1 → two-siRNA summed score (-2 to +2) = 1; call = inactive
COQ10A → two-siRNA summed score (-2 to +2) = 0; call = inactive
DHX35 → two-siRNA summed score (-2 to +2) = 0; call = inactive
LOC222701 → two-siRNA summed score (-2 to +2) = 0; call = inactive
A2M #1 → two-siRNA summed score (-2 to +2) = -1; call = inactive
A2M #2 → two-siRNA summed score (-2 to +2) = 0; call = inactive
DRD1 → two-siRNA summed score (-2 to +2) = 0; call = inactive
FLJ46838 (retired record) → two-siRNA summed score (-2 to +2) = 1; call = inactive
PON1 → two-siRNA summed score (-2 to +2) = 0; call = inactive
KDM4D → two-siRNA summed score (-2 to +2) = 0; call = inactive
